# These are yes or no findings as the source states them, for the method shown. Some results given as binding are weak or reduced against the parent protein; the word gives no strength.
# Chains of the proteins cited; added tags and fusions are not shown. Lines headed by an entry give the natural chain unless they say otherwise; changes in a name come on top.
# UniProt Q2FKG1: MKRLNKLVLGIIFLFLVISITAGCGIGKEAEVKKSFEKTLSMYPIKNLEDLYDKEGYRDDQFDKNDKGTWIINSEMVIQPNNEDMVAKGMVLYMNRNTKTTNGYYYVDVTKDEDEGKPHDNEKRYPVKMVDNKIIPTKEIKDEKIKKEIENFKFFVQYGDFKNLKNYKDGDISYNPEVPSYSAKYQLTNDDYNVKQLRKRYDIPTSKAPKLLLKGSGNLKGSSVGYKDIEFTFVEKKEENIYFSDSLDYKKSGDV
# Target: Sta011 (Staphylococcus aureus) (UniProt Q2FKG1)
# Test: SEC-HPLC of tetravalent pre-lyophilized formulation; self-association (dimer peak)
substance,measurement,value
Sta011 (from UniProt Q2FKG1 24-255),binding,binds
